# Experimental data as given in publication PMC7819943, “Rice protein-binding microarrays: a tool to detect cis-acting elements near promoter regions in rice”.
# Protein sequences, listed by entry. Tags and fused reporters are not part of them.
# UniProt Q0JBA9, entry or part of it: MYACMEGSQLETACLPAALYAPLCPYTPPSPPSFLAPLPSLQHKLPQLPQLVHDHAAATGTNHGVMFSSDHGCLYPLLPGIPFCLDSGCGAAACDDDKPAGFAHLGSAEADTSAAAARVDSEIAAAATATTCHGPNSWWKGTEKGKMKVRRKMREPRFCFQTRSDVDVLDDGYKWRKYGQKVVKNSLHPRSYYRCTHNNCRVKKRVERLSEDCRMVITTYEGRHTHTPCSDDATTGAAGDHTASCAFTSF
# This is one part of the list.
# Molecular target: OsWRKY34 (Oryza sativa, UniProt Q0JBA9 1-250)
# Assay: protein-binding microarray (RPBM); PBS, 2% BSA, 51.3 ng/ul salmon testes DNA, 50 uM zinc acetate, 200 nM TF, 25 C, 1 h; high values mean tight binding
# Conditions: protein: recombinant; tags: N-terminal polyhistidine and DsRed monomer fusion (pET32a); label: CyDye5-dUTP incorporated in the synthesized complementary strand; 3' TTTTT single-stranded linker to array surface; dsDNA, one strand shown
# How it was run: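 An Axon 4000B scanner gave the binding signal as per-feature fluorescence intensity in arbitrary units. This followed washing of a custom Agilent array that had been incubated for 1 h at 25 °C with 200 nM protein in PBS, 2% BSA, salmon testes DNA and 50 µM zinc acetate. The proteins were transcription factors fused at the N-terminus to polyhistidine and DsRed, expressed in E. coli BL21-CodonPlus and purified on Ni–NTA.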
row,Sequence,binding signal
1,TTTCTCCATGCGACCATGCCTACTGCATCTTATGTTGGTCCGGAGTCACCTAGTGCAG,9440 fluorescence intensity (a.u.)
2,GCCACTTCACCACCAGCAGCAGCAGGGGCATCCACCGTACCGGAGTCACCTAGTGCAG,8250 fluorescence intensity (a.u.)
3,GGATGTGTTGGTAATGCTTTGGATTAAACTTATTGATGACCGGAGTCACCTAGTGCAG,9030 fluorescence intensity (a.u.)
4,TCTAAGAACATCTTTTCCTTTGGCGTTTTGACCGAATGAGCGGAGTCACCTAGTGCAG,8060 fluorescence intensity (a.u.)
5,AAGGTTTCCGGGTATGTTTTTTAATCCGTCATCCCACTCACGGAGTCACCTAGTGCAG,10500 fluorescence intensity (a.u.)
6,TTAGAACAACAAATAATTGTTATGTTAGCGTCTTTTTTTTCGGAGTCACCTAGTGCAG,8680 fluorescence intensity (a.u.)
7,ATTTCTAGTCATGCCCGATAACCACTCCGGCACGACCACGCGGAGTCACCTAGTGCAG,8150 fluorescence intensity (a.u.)
8,GTTATTTCTCCAAATATCGGACGCCGCTCACACTCTGCCTCGGAGTCACCTAGTGCAG,8300 fluorescence intensity (a.u.)
9,ATTTGGTTCCTAGTAGTTTTTTTGTGTTTTGAACCCCAAACGGAGTCACCTAGTGCAG,9090 fluorescence intensity (a.u.)
10,CTCTCTCTCTCTCTGCAGCTAGGCCATATGCATCTCTCCTCGGAGTCACCTAGTGCAG,9070 fluorescence intensity (a.u.)
11,GGGTTGATGTGGCATGTTTGTATGTAGGTTGTAGGAGTGCCGGAGTCACCTAGTGCAG,9330 fluorescence intensity (a.u.)
12,TGTCCAAGCATGCACTTTACATTGCTATCGACTTTTCATCCGGAGTCACCTAGTGCAG,10100 fluorescence intensity (a.u.)
13,TCAGCCACGACGCCGTCTCCTCCTGCCATGACGCCTTCGTCGGAGTCACCTAGTGCAG,8390 fluorescence intensity (a.u.)
14,CATATGATATGACCCTCACAGGTACTACTACTATTTTACTCGGAGTCACCTAGTGCAG,9140 fluorescence intensity (a.u.)
15,GTTTCCTCGCATCTTGCAACATGTTTTGTCCATCTTATTTCGGAGTCACCTAGTGCAG,15400 fluorescence intensity (a.u.)
16,CGCCGTCCACTCCATCCATCGCGTCACCATCCCTTCGCCGCGGAGTCACCTAGTGCAG,14600 fluorescence intensity (a.u.)
17,TCTTGCCTTCTCTCCCTGTGGGCACGCCGCCACCGACACCCGGAGTCACCTAGTGCAG,8140 fluorescence intensity (a.u.)
18,ATAGTCATTTATTTTGTGCTCTCGTATTTTTTTTCTGTTTCGGAGTCACCTAGTGCAG,9540 fluorescence intensity (a.u.)
19,AGACAAGGCTAGGTACAAGCGGTATATATATATATTTCATCGGAGTCACCTAGTGCAG,8370 fluorescence intensity (a.u.)
20,CAACACTACCGTAGTCTCAACCTCATTTGATCATTTCTTTCGGAGTCACCTAGTGCAG,9290 fluorescence intensity (a.u.)
21,GACTATCTCCCTTTCCATCTGCAACAATGTTTTATATATTCGGAGTCACCTAGTGCAG,9470 fluorescence intensity (a.u.)

# A different layout for part of the listing above:
row | Sequence | binding signal
15 | GTTTCCTCGCATCTTGCAACATGTTTTGTCCATCTTATTTCGGAGTCACCTAGTGCAG | 15400 fluorescence intensity (a.u.)
16 | CGCCGTCCACTCCATCCATCGCGTCACCATCCCTTCGCCGCGGAGTCACCTAGTGCAG | 14600 fluorescence intensity (a.u.)
17 | TCTTGCCTTCTCTCCCTGTGGGCACGCCGCCACCGACACCCGGAGTCACCTAGTGCAG | 8140 fluorescence intensity (a.u.)

# Continuation:

row,Sequence,binding signal
1,GATTATGCTGTGGGATCGTTTGTCTTGGGCCGGACCGCTTCGGAGTCACCTAGTGCAG,9130 fluorescence intensity (a.u.)
2,TGTTTTCCATTTTCCAGGTTTTCCACAGCTGTGCGCCTGTCGGAGTCACCTAGTGCAG,11000 fluorescence intensity (a.u.)
3,GTTATTTCCACACTTAGTTTACTTTTAAATTAATTTAAACCGGAGTCACCTAGTGCAG,9320 fluorescence intensity (a.u.)
4,ATTTGTTGTCTAGATCTCTCTTGTATTGTCAAACTGGAAACGGAGTCACCTAGTGCAG,8740 fluorescence intensity (a.u.)
5,GTTGGTTGGTTGGTTGGTTGGCTTCTTCTCGGTTTGTTCGCGGAGTCACCTAGTGCAG,25000 fluorescence intensity (a.u.)
6,GGTATGTCCAGATTCACTCTAATGTGTTAGAATTACTCTTCGGAGTCACCTAGTGCAG,8040 fluorescence intensity (a.u.)
7,CTGTTCTTTTGTATGAATCCCTGAGAGTGGAATTTATAGTCGGAGTCACCTAGTGCAG,8070 fluorescence intensity (a.u.)
8,GCCATCCACCACCGCCCCTCCCTCTCGCCGCGCGCGCGCGCGGAGTCACCTAGTGCAG,10500 fluorescence intensity (a.u.)
9,GACCCCGACGATCATTTATCCTGGCTTCGCCCCTGCTAACCGGAGTCACCTAGTGCAG,11500 fluorescence intensity (a.u.)
10,AAGACATGTGAATTTTGGTGGGATGTGGATGGGGAATTGACGGAGTCACCTAGTGCAG,9840 fluorescence intensity (a.u.)
11,AGTGTCATTTGCCCGCCTCACCTGCACTCTCTCCATCTCTCGGAGTCACCTAGTGCAG,8760 fluorescence intensity (a.u.)
12,TTGGAAGCTTTTCTTGCCTGCTGCATTCTGAATATAGTGTCGGAGTCACCTAGTGCAG,8300 fluorescence intensity (a.u.)
13,ATCTCCTTAGAGTCTGCTCTTACTGATCGGTTCCGTCTCCCGGAGTCACCTAGTGCAG,8080 fluorescence intensity (a.u.)
14,TGCGTACGTTTTTTTTTCTTCTTTGGTTTTACCGCGCGCGCGGAGTCACCTAGTGCAG,11400 fluorescence intensity (a.u.)
15,GATCCACCGCCGCCGCCCGCTCGCCGGAGTCCCATCGCTGCGGAGTCACCTAGTGCAG,8600 fluorescence intensity (a.u.)
16,TGGATGCAAGCAGGATGGGTTAGTGGGATTTTTCTTCTTCCGGAGTCACCTAGTGCAG,15100 fluorescence intensity (a.u.)
17,AATGTATGACGCCGTTGACTTTTTGACCAACGTTTGACTACGGAGTCACCTAGTGCAG,36100 fluorescence intensity (a.u.)
18,GTGGTGGCAGGCTTGAGTGGTTAGGAGGTGGATATCGGTGCGGAGTCACCTAGTGCAG,8030 fluorescence intensity (a.u.)
19,CCTATAAATAACAACCAAACCTAGCACACAACTACATCTCCGGAGTCACCTAGTGCAG,8380 fluorescence intensity (a.u.)
20,AGGGCAGTGTTCTTGTTTATTTTACTTTATCCAGCGTCGCCGGAGTCACCTAGTGCAG,9570 fluorescence intensity (a.u.)
21,TCATGCACCGCCTCTTAATTTCTTCTTCTTTCTTGGGGCCCGGAGTCACCTAGTGCAG,8420 fluorescence intensity (a.u.)
